Laboratory results taken from publication PMC8511299.
Results are given in words; binding and its absence hold for the method and conditions named. In cells and extracts the contact can be indirect. Some entries that bind do so weakly or less than the wild type.

By UniProt entry, the sequences of proteins in these tests, tags left out.
UniProt P28033: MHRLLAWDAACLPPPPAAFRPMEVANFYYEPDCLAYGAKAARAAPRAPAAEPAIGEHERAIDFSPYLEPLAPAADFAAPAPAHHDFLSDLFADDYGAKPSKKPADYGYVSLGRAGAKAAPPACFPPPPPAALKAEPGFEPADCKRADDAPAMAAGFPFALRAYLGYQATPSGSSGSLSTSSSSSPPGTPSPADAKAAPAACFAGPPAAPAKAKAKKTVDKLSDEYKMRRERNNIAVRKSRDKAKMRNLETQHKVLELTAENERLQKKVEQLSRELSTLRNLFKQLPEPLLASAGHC

Molecular target: T1, Sirutin 2 (SIRT2) (mouse (endogenous in AML12)) (UniProt Q8VDQ8)
T1 sequence: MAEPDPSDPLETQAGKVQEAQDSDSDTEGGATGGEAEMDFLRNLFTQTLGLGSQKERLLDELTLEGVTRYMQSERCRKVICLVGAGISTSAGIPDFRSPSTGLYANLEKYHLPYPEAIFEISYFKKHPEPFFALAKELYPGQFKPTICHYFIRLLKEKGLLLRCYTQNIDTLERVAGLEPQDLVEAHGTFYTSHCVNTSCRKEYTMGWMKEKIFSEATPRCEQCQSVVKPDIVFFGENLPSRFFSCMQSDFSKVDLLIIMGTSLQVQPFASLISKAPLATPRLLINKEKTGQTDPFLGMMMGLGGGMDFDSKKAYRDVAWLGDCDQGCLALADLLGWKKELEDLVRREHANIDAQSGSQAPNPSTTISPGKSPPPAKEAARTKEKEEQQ
Assay: co-IP; endogenous proteins in AML12 cells, with or without ethanol; C/EBPβ coimmunoprecipitated with the same loading amount of SIRT2

## CCAAT/enhancer-binding protein beta (C/EBPβ) (from UniProt P28033 1-296)
  binding: binds
